Changes are numbered by the printed parent chain. Numbers in names are those of the source. No constants are given. Whether binding was seen depends on the method and setting. For some assays here: In cells and extracts the contact can be indirect. Some results given as binding are weak or reduced against the parent protein; the word gives no strength. For some assays here: Tags and fused reporters may be left off the sequences shown. Each block holds one molecule with its values, some of them ahead of it.
Legend:
[1] = target: T1, nEYFP–SIZ1 (Arabidopsis thaliana) (UniProt Q680Q4); assay: split reporter; BiFC; nEYFP–SIZ1 and cEYFP–FLC constructs mixed 1:1 and co-bombarded into onion epidermal cells, 25 °C in the dark for 16 h, confocal microscopy
T1 sequence: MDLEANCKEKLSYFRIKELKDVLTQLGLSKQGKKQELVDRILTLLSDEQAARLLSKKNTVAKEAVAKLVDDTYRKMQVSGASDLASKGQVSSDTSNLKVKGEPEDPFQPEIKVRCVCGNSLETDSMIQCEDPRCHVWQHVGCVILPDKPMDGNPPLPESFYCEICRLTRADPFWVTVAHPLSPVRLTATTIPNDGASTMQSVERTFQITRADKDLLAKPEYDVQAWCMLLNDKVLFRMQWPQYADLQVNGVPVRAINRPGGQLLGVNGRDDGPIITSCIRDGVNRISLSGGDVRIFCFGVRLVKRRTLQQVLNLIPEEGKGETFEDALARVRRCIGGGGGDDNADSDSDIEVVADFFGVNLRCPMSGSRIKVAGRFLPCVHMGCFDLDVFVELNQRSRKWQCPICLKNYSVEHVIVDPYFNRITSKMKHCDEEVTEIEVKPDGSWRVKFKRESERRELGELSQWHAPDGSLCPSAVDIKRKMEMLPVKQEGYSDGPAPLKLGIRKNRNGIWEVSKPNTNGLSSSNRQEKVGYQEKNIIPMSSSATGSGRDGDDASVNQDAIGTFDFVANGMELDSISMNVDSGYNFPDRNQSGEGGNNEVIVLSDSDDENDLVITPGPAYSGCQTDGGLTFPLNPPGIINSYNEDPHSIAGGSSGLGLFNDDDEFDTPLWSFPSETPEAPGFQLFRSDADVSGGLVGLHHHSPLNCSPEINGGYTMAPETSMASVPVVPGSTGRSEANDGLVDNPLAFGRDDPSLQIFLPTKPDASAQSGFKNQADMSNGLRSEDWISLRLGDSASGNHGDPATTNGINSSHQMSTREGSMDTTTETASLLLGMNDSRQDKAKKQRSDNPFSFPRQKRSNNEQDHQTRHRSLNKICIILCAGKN

[2] = target: T2, BD-IAA4 (INDOLEACETIC ACID 4) (UniProt P33077); assay: two-hybrid; GAL4-based system (Clontech), AD-AtSIZ1 (pGAD424) and BD-IAA4 (pGBT8) in yeast AH109; growth on –Leu/–Trp/–His
T2 sequence: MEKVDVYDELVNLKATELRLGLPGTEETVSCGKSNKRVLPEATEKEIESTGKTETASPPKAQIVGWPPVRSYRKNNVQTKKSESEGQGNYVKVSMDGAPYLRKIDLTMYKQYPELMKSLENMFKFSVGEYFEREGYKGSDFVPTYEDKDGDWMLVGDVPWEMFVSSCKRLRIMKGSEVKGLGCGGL

[3] = target: T3, GST–AtSIZ1 (GS), full length (Arabidopsis thaliana) (UniProt Q680Q4); assay: pull-down; 2 μg GST–AtSIZ1 (full length or deletion mutant) or GST bait and 2 μg His6-FLC prey in 1 ml 50 mM TRIS-HCl pH 7.5, 100 mM NaCl, 1% Triton X-100, 0.2% glycerol, 0.5 mM β-mercaptoethanol; 25 °C 2 h; glutathione resin; anti-His blot; both purified
T3 sequence: T1 sequence

[4] = target: T4, MBP–AtSIZ1, full length (Arabidopsis thaliana) (UniProt Q680Q4); assay: pull-down; 2 μg MBP–AtSIZ1 bait and 2 μg His6-FLC or His6-mFLC prey in 1 ml binding buffer (50 mM TRIS-HCl pH 7.5, 100 mM NaCl, 1% Triton X-100, 0.2% glycerol, 0.5 mM β-mercaptoethanol); 25 °C 2 h; amylose resin; anti-His blot; both purified
T4 sequence: T1 sequence

binding [1]: binds
Molecule: cEYFP–FLC (from UniProt Q9S7Q7 1-196)

binding [2]: binds
B1: AD-AtSIZ1 (protein, UniProt Q680Q4 1-884)
chain: T1 sequence

binding [3]: binds
binding [4]: binds
B2: His6-FLC (flowering locus C, full length) (natural protein, Arabidopsis thaliana, UniProt Q9S7Q7 1-196, looked up)
chain: MGRKKLEIKRIENKSSRQVTFSKRRNGLIEKARQLSVLCDASVALLVVSASGKLYSFSSGDNLVKILDRYGKQHADDLKALDHQSKALNYGSHYELLELVDSKLVGSNVKNVSIDALVQLEEHLETALSVTRAKKTELMLKLVENLKEKEKMLKEENQVLASQMENNHHVGAEAEMEMSPAGQISDNLPVTLPLLN
notes: Flowering locus C (FLC), MADS-box transcription factor, Arabidopsis; full-length cDNA in pET28a; The printed name puts His6 before FLC; also called Arabidopsis FLC; source: E. coli BL21/DE3 (pLysS), purified (Ni2+-NTA resin)

binding [4]: binds
B3: His6-mFLC (FLC K154R) (natural protein, Arabidopsis thaliana, UniProt Q9S7Q7 1-196, looked up)
chain: B2 chain with K154R
notes: Flowering locus C (FLC), Arabidopsis, full length with the sumoylation site mutation K154R; The construct section describes His6-FLC(K154R)-Myc only; also called mutant FLC; source: E. coli BL21, purified (Ni2+-NTA resin)

From PMC3883301, “FLC-mediated flowering repression is positively regulated by sumoylation” (Journal of Experimental Botany, 2013)
